From ChEMBL document CHEMBL3988442, “University of Dundee, Small-Polar-MMV Screening Library” (2021).

The chains behind the UniProt entries cited, without tags or fusion partners. Residues count along the entry.
UniProt I6X8D2, whole entry: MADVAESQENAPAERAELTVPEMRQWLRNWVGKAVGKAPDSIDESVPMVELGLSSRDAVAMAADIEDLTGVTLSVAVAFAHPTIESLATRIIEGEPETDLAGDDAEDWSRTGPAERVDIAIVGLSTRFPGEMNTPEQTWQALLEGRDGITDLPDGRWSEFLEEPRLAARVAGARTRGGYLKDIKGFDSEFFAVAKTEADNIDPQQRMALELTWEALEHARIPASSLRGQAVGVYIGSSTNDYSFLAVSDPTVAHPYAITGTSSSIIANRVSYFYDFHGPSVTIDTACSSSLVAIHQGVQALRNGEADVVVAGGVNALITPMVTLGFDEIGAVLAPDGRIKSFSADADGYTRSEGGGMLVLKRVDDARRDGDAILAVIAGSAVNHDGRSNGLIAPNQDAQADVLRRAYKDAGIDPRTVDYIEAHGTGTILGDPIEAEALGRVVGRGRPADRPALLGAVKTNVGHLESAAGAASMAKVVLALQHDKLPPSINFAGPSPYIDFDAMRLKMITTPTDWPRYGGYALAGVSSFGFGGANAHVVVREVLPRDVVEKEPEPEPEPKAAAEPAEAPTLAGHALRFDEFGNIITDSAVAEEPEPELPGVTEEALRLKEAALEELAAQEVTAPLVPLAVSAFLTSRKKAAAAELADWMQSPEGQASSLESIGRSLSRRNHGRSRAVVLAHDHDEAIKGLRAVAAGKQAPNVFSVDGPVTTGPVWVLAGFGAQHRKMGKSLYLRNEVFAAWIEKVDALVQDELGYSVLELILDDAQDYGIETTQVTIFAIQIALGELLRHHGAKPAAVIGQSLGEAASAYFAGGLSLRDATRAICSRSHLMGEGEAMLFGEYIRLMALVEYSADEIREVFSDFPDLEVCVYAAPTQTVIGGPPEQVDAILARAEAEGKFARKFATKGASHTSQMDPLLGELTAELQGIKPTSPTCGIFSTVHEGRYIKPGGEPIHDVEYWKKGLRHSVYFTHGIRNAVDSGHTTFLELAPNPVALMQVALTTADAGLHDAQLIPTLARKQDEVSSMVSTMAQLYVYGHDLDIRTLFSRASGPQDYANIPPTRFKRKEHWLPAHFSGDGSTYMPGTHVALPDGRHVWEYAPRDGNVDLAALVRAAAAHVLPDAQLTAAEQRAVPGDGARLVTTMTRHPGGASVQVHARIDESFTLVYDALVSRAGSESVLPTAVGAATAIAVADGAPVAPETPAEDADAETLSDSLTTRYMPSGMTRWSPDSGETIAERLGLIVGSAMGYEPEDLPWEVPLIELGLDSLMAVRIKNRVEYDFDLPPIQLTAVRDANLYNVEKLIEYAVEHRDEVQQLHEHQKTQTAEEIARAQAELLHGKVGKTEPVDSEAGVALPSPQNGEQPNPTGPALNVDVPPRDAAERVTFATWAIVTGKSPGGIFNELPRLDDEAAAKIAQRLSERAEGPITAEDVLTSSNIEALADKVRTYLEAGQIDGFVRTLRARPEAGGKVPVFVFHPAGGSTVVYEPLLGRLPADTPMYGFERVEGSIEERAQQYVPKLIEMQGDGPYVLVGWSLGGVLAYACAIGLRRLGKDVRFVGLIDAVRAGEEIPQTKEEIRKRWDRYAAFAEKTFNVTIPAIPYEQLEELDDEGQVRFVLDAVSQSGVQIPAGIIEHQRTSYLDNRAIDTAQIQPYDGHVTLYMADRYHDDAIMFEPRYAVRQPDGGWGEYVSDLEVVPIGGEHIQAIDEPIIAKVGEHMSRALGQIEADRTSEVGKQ
UniProt Q4DA54, 1-478: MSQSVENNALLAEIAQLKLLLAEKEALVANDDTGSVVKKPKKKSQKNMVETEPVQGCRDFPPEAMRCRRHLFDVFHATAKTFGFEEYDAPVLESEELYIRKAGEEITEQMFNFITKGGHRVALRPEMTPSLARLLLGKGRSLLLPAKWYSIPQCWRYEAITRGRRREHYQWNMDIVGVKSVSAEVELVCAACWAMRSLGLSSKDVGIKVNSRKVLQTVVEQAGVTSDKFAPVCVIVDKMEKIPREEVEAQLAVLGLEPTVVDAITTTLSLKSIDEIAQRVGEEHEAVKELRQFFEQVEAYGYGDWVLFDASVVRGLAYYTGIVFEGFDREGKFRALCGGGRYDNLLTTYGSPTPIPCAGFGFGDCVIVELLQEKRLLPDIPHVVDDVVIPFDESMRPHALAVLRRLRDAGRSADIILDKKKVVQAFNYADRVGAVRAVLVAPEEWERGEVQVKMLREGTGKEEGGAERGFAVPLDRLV
UniProt P9WFT3, whole entry: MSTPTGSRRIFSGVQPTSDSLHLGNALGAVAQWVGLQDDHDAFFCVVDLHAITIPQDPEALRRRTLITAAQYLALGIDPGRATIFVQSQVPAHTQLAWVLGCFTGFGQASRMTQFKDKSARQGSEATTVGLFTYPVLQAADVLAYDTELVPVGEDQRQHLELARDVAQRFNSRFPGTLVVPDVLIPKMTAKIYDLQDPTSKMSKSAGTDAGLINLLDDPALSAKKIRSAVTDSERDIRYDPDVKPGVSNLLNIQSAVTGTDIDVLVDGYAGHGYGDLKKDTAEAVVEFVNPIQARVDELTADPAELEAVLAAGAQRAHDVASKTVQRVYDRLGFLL
UniProt P9WPC5, whole entry: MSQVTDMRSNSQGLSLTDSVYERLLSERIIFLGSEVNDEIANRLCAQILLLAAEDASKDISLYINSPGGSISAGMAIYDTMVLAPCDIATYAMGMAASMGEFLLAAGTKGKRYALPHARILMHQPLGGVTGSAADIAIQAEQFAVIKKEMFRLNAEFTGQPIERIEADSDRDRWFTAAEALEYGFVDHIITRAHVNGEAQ
UniProt P9WPC3, whole entry partner: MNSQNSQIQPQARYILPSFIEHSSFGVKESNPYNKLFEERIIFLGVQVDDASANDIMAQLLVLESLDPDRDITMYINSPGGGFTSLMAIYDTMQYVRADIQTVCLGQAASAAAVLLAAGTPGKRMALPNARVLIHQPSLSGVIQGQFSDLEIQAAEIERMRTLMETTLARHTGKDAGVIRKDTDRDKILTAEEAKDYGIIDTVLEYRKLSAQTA

Results are given as percent effect. The controls that fix the scale are not given in the record; negative values are as filed. This is an unselected part of the compounds tested. A dash means the value is not listed here; it may have been measured.

Pks13 thioesterase: 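Polyketide synthase Pks13, Mycobacterium tuberculosis (UniProt I6X8D2). Enzyme assay of the thioesterase domain of polyketide synthase 13; the read-out is not stated. Compounds at 30 µM. Higher reads as stronger inhibition (inferred from which compounds were picked for retests). About 67,000 compounds were tested under these conditions; 0.46% (about 300) showed 50% or more at least once.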
TcHisRS: 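Histidine-tRNA ligase, Trypanosoma cruzi CL Brener (UniProt Q4DA54). Enzyme assay of histidyl-tRNA synthetase; the read-out is not stated. Tested at 30 µM. Direction is inferred from retests: higher values go with stronger inhibition. Size under these conditions: about 69,000 compounds, about 31 of them at 50% or above in at least one test.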
MtTrpRS: 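Tryptophan-tRNA ligase, Mycobacterium tuberculosis (UniProt P9WFT3). Enzyme assay of tryptophanyl-tRNA synthetase; the read-out is not stated. Concentration: 10 µM. Higher most likely means stronger inhibition; the record gives no direction and few retests gave an IC50. Of about 65,000 compounds tested this way, about 64 (0.098%) reached 50% or more in at least one test.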
ClpP1P2: 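ClpP1P2, Mycobacterium tuberculosis (UniProt P9WPC5 and UniProt P9WPC3). Protease assay of ClpP1P2, read by the AMC dye that it sets free. Tested at 50 µM. Direction is inferred from only a few compounds that gave an IC50; most scored high, so higher reads as stronger inhibition. Most other retested compounds had strongly negative values. About 69,000 compounds were tested under these conditions; 0.015% (about 10) showed 50% or more at least once.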

SMILES,Pks13 thioesterase,TcHisRS,MtTrpRS,ClpP1P2
CC(C)(C)c1cc(=O)n2c(n1)SCC(C(=O)NCc1cccs1)C2 (stereo unspecified),-4.88%,6%,-4.491%,-18.54%
O=C1COc2cc(C(=O)NS(=O)(=O)c3ccc(F)c(F)c3)ccc2N1,-,-0.578%,15.14%,-20.76%
O=C([C@@H]1CN(Cc2nccs2)C[C@H]2OCC[C@H]21)N1CCOCC1,-51.11%,7.143%,-0.9856%,-5.22%
Cc1nc(-c2ccccc2)sc1CNC(=O)c1ccc(=O)n(C)c1,-35.3%,9.392%,-4.706%,-19.38%
CCN(Cc1cc(Cl)ccc1OC)Cc1cc(C)nn1C,-18.32%,3.448%,4.113%,-6.287%
CC(C)(C)C(=O)N1CCCC(c2ncncc2-c2ccncc2)C1 (stereo unspecified),-1.443%,2.996%,-,-14.73%
CC(C)C1CN(C(=O)c2nccnc2N)CCS1 (stereo unspecified),1.782%,-0.8368%,-1.243%,-7.58%
COCc1nc(CNc2cc(C)nc(-c3ccccc3)n2)no1,-7.82%,3.093%,-1.06%,-10.76%
CC(C)N(C)Cc1cncc2c1CCN(C(=O)c1cccc(C#N)c1)C2,-,4.301%,1.762%,-13.03%
COc1ccccc1N1CCN(C(=O)Cn2nc(C)c(C)c2C)C(C)C1 (stereo unspecified),-35.1%,-2.89%,-0.9726%,8.741%
O=c1ccc(-n2ccnc2)nn1CCNS(=O)(=O)c1ccc(F)c(Cl)c1,-18.52%,6.186%,-2.204%,-0.6585%
COc1ccc(OC)c(CNCCc2cc(F)cc3c2OCOC3)c1,-32.77%,7.317%,-7.014%,-6.232%
c1ccc(C2CN(c3ncnc4[nH]cnc34)CCO2)cc1 (stereo unspecified),-36.81%,1.538%,3.468%,1.984%
CC(C)(C)c1noc(CN2CCN(C(=O)c3ccco3)CC2)n1,-6.82%,0%,2.107%,-27.23%
CCN1CCN(C(=O)NCCOc2ccc3c(c2)OCO3)CC1,-5.376%,1.141%,1.101%,-1.688%
CCN1C(=O)[C@H]2CN(Cc3cccnc3)C[C@H]2C12CCN(C(C)=O)CC2,-18.08%,3.883%,-2.829%,-2.972%
COc1ccccc1CN1CC[C@H]2C[C@H](C(=O)N3CCCC3)O[C@H]2C1,4.594%,3.226%,7.729%,5.558%
c1ccc(C(NCc2nnc(-c3ccco3)o2)C2CCC2)cc1 (stereo unspecified),-56.14%,1.754%,1.891%,-10.14%
CO[C@H]1CCN(C2CCOCC2)C[C@@H]1Cc1ccccc1,-24.02%,1.942%,-4.123%,-18.47%
N#Cc1cc(F)c(NCCCOCC2CCOC2)c(F)c1 (stereo unspecified),16.34%,0.5348%,10.69%,-4.697%
O=C(CN1C(=O)CCNC1=O)N1CCC2(CCc3ccccc32)CC1,6.836%,-0.578%,15.3%,-3.817%
Cn1cc(C2CC(=O)NC23CCN(C(=O)c2cccnc2)CC3)cn1 (stereo unspecified),-12.97%,7.882%,-7.49%,-10.98%
Cc1cnn(CCC(=O)N2CCCN(c3ccccc3C#N)CC2)c1,4.797%,8.309%,-0.7099%,-41.93%
CCN1C[C@@H]2CN(C(=O)NCc3ccccc3)CCC[C@]2(C(=O)O)C1,-15.44%,2.299%,-4.392%,3.812%
CNC(=O)c1cnc2n1CCN(Cc1cccnc1OC)C2,-24.51%,-1.149%,-4.026%,9.392%
CN1CCN2C(=O)N(C3CCOCC3)C[C@H]2C1,19.9%,0.4975%,-4.043%,-7.283%
CCSc1ccccc1C(=O)NCCN1CCC(c2cccs2)CC1,-10.43%,-0.5025%,4.842%,-3.408%
CCC1=N[C@@]2(CC[C@@H]3CN(C(=O)NCc4cccc(F)c4)C[C@@H]32)C(=O)N1,-15.43%,4.202%,5.577%,3.68%
Cc1nn(C)c(C)c1-c1cnc(C2CCCN(C)C2)cn1 (stereo unspecified),-6.028%,8.24%,-,-8.556%
Cc1nnc(SC2CCN(c3sccc3C#N)C2=O)[nH]1 (stereo unspecified),-3.014%,6%,1.028%,-7.663%
CCC(O)CN(Cc1ccccc1)S(=O)(=O)c1cnc(C)s1 (stereo unspecified),-14.6%,9.036%,6.623%,-6.266%
CN(C)C(=O)c1ccc(OC2CCCC2)cc1,-24.7%,3.093%,-5.047%,-6.301%
Cn1cc(C2CCCN2C(=O)CCn2c(=O)oc3ccccc32)cn1 (stereo unspecified),-,9.392%,-3.199%,-2.051%
CC(C)(NCc1ccc(C#N)cc1)c1ccc2c(c1)OCO2,-18.3%,9.804%,-0.09709%,0.1345%
CN(C)C(=O)CN(C)C(=O)c1csc(Br)c1,-17.09%,2.591%,-2.75%,21.93%
CCNc1cc(N2CCN(C(=O)c3ccc(OC)cc3)CC2)nc(C)n1,-5.212%,4.523%,-2.971%,-15.25%
Cc1noc(C)c1CN1CCOC(CNc2cccnn2)C1 (stereo unspecified),-34.53%,1.729%,8.436%,-12.05%
Cc1nc(CN2CCC(Oc3ccc(F)cc3C)(C(=O)O)CC2)co1,3.601%,3.279%,-1.254%,-17.82%
Fc1ccccc1CO[C@@H]1C[C@H]2CN(c3ncccn3)CCN2C1,2.235%,7.595%,-4.639%,-5.678%
O=C(CCc1cc2n(n1)CCCN(C(=O)c1ccccn1)C2)NC1CC1,-12.96%,0.813%,-3.033%,-8.08%
CCC(C)NS(=O)(=O)Cc1cccc(NC(=O)c2cc[nH]c2C)c1 (stereo unspecified),-17.23%,1.587%,-0.7802%,-4.337%
Cc1noc(-c2cnc(NC3CC3)nc2-c2ccco2)c1C,10.93%,7.28%,-1.953%,3.521%
Cc1nc(CNCc2ccc(N3CCC(CO)CC3)nc2)cs1,-8.712%,6.329%,-0.000005%,-15.47%
Cc1cc(CCC(=O)N2CC[C@H](O)C2)ccc1Br,-15.87%,-1.053%,-0.09551%,-12.7%
Cc1nc(COC[C@H]2CC[C@H]3[C@H](CCN3c3ncccn3)O2)cs1,-3.502%,13.27%,-5.08%,6.468%
CCN1CC2(CC1=O)CN(C(=O)NC(C)C)CCN(C(=O)C(C)C)C2 (stereo unspecified),0.8141%,5.028%,-,-17.77%
CN(CCn1nc2ccccn2c1=O)CC(=O)N(C)C1CCCCC1,-12.56%,13.07%,3.121%,-2.163%

For reference, 5 entries once more:

{"smiles": "CC(C)N(C)Cc1cncc2c1CCN(C(=O)c1cccc(C#N)c1)C2", "TcHisRS": 4.301, "MtTrpRS": 1.762, "ClpP1P2": -13.03}
{"smiles": "CCSc1ccccc1C(=O)NCCN1CCC(c2cccs2)CC1", "Pks13 thioesterase": -10.43, "TcHisRS": -0.5025, "MtTrpRS": 4.842, "ClpP1P2": -3.408}
{"smiles": "CCN(Cc1cc(Cl)ccc1OC)Cc1cc(C)nn1C", "Pks13 thioesterase": -18.32, "TcHisRS": 3.448, "MtTrpRS": 4.113, "ClpP1P2": -6.287}
{"smiles": "CCC(C)NS(=O)(=O)Cc1cccc(NC(=O)c2cc[nH]c2C)c1", "stereo": "stereo unspecified", "Pks13 thioesterase": -17.23, "TcHisRS": 1.587, "MtTrpRS": -0.7802, "ClpP1P2": -4.337}
{"smiles": "CN1CCN2C(=O)N(C3CCOCC3)C[C@H]2C1", "Pks13 thioesterase": 19.9, "TcHisRS": 0.4975, "MtTrpRS": -4.043, "ClpP1P2": -7.283}